The results in this text go back to US10172789B2, “Compositions for transdermal delivery of mTOR inhibitors” (PALVELLA THERAPEUTICS LLC, priority 2013, dated 2019).

Structures are written as SMILES. Where only a bound is given, the exact number is not on record here.

The nature of this data set: Solubility of rapamycin in solvents. The format is physicochemical. To be noted: benzyl alcohol solution. The text has this: mTOR inhibitors are a potent class of pharmaceutically active agents that can be useful in treating a variety of conditions. There is a need that exists in the marketplace for topical formulation for delivering mTOR inhibitors. Formulations for mTOR inhibitors can be challenging because of their structures and solubility challenges that exist for many of these compounds. […] Benzyl alcohol has been identified as a solvent that can effectively solubilize rapamycin. In particular, benzyl alcohol can support 20 wt % solutions and higher of rapamycin. […] For example, formulations utilizing Span 80 and/or Tween 20 as surfactants were only able to achieve benzyl alcohol loading of 20 wt % or less.

For `CO[C@H]1C[C@@H]2CC[C@@H](C)[C@@](O)(O2)C(=O)C(=O)N2CCCC[C@H]2C(=O)O[C@H]([C@H](C)C[C@@H]2CC[C@@H](O)[C@H](OC)C2)CC(=O)[C@H](C)/C=C(\C)[C@@H](O)[C@@H](OC)C(=O)[C@H](C)C[C@H](C)/C=C/C=C/C=C/1C` [rapamycin], the “solubility of rapamycin in benzyl alcohol” value is not below 20 wt %.
